The record followed here is PubChem BioAssay AID1487 (National Center for Advancing Translational Sciences (NCATS), 2009).

The list shows a part of the results. These are further read-outs of the screen, such as a control signal, another cell line or another target. No call is given for them. Compounds called inactive in the main read-out are mostly missing here. The note in brackets gives the kind of curve behind each potency; many fits are weak.

The test in a line: qHTS Assay for Modulators of Lamin A Splicing. Particulars: HeLa LMNA splicing GFP/RFP minigene ratio, 48 h. Summed up: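 Read-out is the ratio of GFP to DsRed2 object intensity, acquired by 488 nm laser-scanning cytometry on HeLa lamin A-EGFP minigene reporter cells. Compound incubation 48 hrs at 37 °C in Opti-MEM with 2% FBS; DMSO 0.5% final.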
[1] abbreviates: measured here: RFP viability control channel.
The mark [2] stands for this setting: measured here: GFP splicing reporter channel.

For orientation: AC50 means the midpoint of the concentration-response curve, whichever way the signal moves. On to `CC1=NN(c2ccc(Cl)cc2)C(=O)C1C(c1cccc(O)c1)c1c(C)[nH]n(-c2ccc(Cl)cc2)c1=O` (configuration not stated), for which the AC50 under setting [1] is 17.8 µM [rising, single point].

On to `CS(=O)(=O)N(CC(=O)Nc1ccccc1Sc1ccccc1)c1cccc(Br)c1`, for which the AC50 under setting [1] is 22.4 µM [rising, single point].

Take `Cc1cccc(NC(=O)Nc2ccc(Oc3c(F)c(F)c(F)c(F)c3F)cc2)c1`: the AC50 is 17.8 µM [rising, partial curve] under setting [2] and 14.1 µM [rising, partial curve] under setting [1]. Regarding `C=CCn1c(SCC(=O)N2CCOCC2)nc2scc(-c3ccco3)c2c1=O`, the AC50 under setting [2] is 7.94 µM [rising, partial curve]. Turning to `CC1CC1c1ccc(/C=C(\C#N)C(=O)Nc2cccc(Cl)c2Cl)o1` (configuration not stated), under setting [1], the AC50 is 12.6 µM [rising, partial curve].

Regarding `Cc1ccc2c(C)nc(Nc3nc(CSc4nnc(C)s4)cc(=O)[nH]3)nc2c1`, under setting [2], the AC50 is 35.5 µM [falling, single point].

As to `O=C(Nc1ccccc1N1CCN(C(=O)c2ccccc2)CC1)c1ccc2c(c1)OCO2`, the AC50 under setting [1] was 2 µM [rising, partial curve].

Take `CCOc1ccc(CC(=O)Nc2ccc3c(c2)N(C)C(=O)c2ccccc2S3)cc1OCC`: the half-maximal activity concentration (AC50) under setting [2] is 3.55 µM [falling, full curve]. Regarding `COC(=O)c1oc(-c2ccc(Cl)cc2)nc1C`, the AC50 under setting [1] is 0.0891 µM [rising, full curve, poor fit].

With `COc1ccc(CNc2nc(S(=O)(=O)c3ccccc3)c(Cl)s2)cc1OC`, under setting [1], the AC50 was 8.91 µM [rising, partial curve]. On to `CCCCN(CC)S(=O)(=O)c1ccc2c(c1)CCCN2C(C)=O`, for which the AC50 was 20 µM [rising, single point] under setting [2] and 35.5 µM [rising, single point] under setting [1].

As to `COCCNC(=O)c1c(N)n(-c2ccccc2)c2nc3ccccc3nc12`, the AC50 by setting is: under setting [2], 6.31 µM [falling, single point]; under setting [1], 5.62 µM [falling, single point]. For the compound `Cc1ccc(C(=O)c2coc3cc([N+](=O)[O-])c(O)c([N+](=O)[O-])c23)cc1`, the AC50 under setting [1] is 12.6 µM [rising, partial curve]. On the same count and under the same terms, to `CCOc1ccccc1C(=O)NCC(=O)O` belongs 22.4 µM [falling, single point].

Regarding `CCOC(=O)N1CCc2c(sc(NCc3sccc3C)c2C(=O)Nc2cc(OC)ccc2OC)C1`, the AC50 under setting [2] was 15.8 µM [falling, partial curve, poor fit]. Consider `Cc1c(C(=O)Nc2ccc(-c3nnc4n3CCCCC4)cc2)oc2c1ccc1ccccc12`, for which the AC50 under setting [2] was 35.5 µM [falling, single point] and the AC50 under setting [1] is 35.5 µM [falling, single point]. As for `Brc1ccc2c(c1)CNc1c(ncnc1N1CCOCC1)O2`, under setting [1], the half-maximal activity concentration (AC50) is 28.2 µM [rising, partial curve]. With `CCC(=O)Nc1cccc(C(=O)/C=C/c2ccc(F)cc2)c1`, the AC50 under setting [1] was 35.5 µM [rising, single point]. For `COc1ccc(OC)c(/C=C/C(=O)c2ccc(Cl)cc2)c1`, the AC50 reads like this: under setting [2], 17.8 µM [falling, partial curve]; under setting [1], 22.4 µM [falling, partial curve]. On to `COc1ccc(OCC(=O)Nc2cccc3cccnc23)cc1`, for which the AC50 by setting is: under setting [2], 12.6 µM [rising, partial curve, poor fit]; under setting [1], 11.2 µM [rising, partial curve, poor fit]. For the compound `CN(Cc1ccccc1)C(=O)c1ccc2c(c1)NC(=O)C(N1CCOCC1)S2` (configuration not stated), the AC50 under setting [2] is 1.78 µM [rising, partial curve]. As for `O=[N+]([O-])c1ccc2nc(/C=C/c3ccc(Cl)cc3)[nH]c2c1`, the AC50 under setting [1] is 5.62 µM [falling, partial curve, poor fit]. Consider `CC1(C)Cc2c(C#N)c(NCCc3ccccc3)nc(-c3ccco3)c2CO1`, for which the AC50 reads like this: under setting [2], 11.2 µM [rising, partial curve]; under setting [1], 8.91 µM [rising, partial curve]. For the compound `Cc1cccc(N2CCN(C(=O)c3cc4c(=O)n(C)c5ccccc5c4n3C)CC2C)c1` (configuration not stated), the AC50 under setting [1] is 35.5 µM [rising, single point].

With `COc1ccc(Oc2ccc(N/C=C3\CCCC3=O)cc2)cc1`, the AC50 under setting [1] is 3.98 µM [rising, partial curve, poor fit].

Turning to `CCCCCCCCCCOC(=O)NC1CCS(=O)(=O)C1` (configuration not stated), the AC50 under setting [2] is 0.708 µM [rising, full curve, poor fit].

Take `CC(NC(=O)c1ccccc1)C(=O)N/N=C/c1ccc(O)cc1` (configuration not stated): the AC50 under setting [1] was 0.398 µM [falling, full curve, poor fit]. For `Oc1c(C(c2ccccc2F)N2CCOCC2)sc2nc(-c3ccco3)nn12` (configuration not stated), under setting [2], the AC50 was 35.5 µM [rising, single point].

`CC(=O)c1cc(C(=O)c2ccccc2)sc1Nc1ccccc1`: the concentration at half-maximal activity (AC50) was 35.5 µM [rising, single point] under setting [2] and 31.6 µM [rising, single point] under setting [1]. On to `CCOC(=O)C1=C(C)OC(N)=C(C#N)C1c1cc2c(cc1[N+](=O)[O-])OCO2` (configuration not stated), for which the AC50 under setting [2] was 0.0891 µM [rising, full curve, poor fit]. Take `Cc1ccccc1-n1cc(C(=O)c2cc(Cl)ccc2O)cc(C#N)c1=O`: the AC50 is 10 µM [rising, partial curve] under setting [2] and 12.6 µM [rising, partial curve] under setting [1]. Consider `CCOc1ccc(Br)cc1S(=O)(=O)Nc1ccc(NC(=O)c2ccccc2F)cc1`, for which the AC50 under setting [2] is 20 µM [rising, partial curve, poor fit] and the AC50 under setting [1] was 17.8 µM [rising, partial curve, poor fit]. For the compound `CC(NC(=O)CSc1n[nH]c(-c2ccccc2Cl)n1)c1nc2ccccc2n1C` (configuration not stated), the AC50 under setting [1] was 5.62 µM [falling, partial curve]. Regarding `CCN(c1ccccc1)S(=O)(=O)c1ccc2[nH]cc(C(=O)NC3CCCCC3)c(=O)c2c1`, the AC50 was 35.5 µM [falling, partial curve] under setting [2] and 25.1 µM [falling, partial curve] under setting [1]. As to `CCOC(=O)c1[nH]c2ccc(OC)cc2c1NC(=S)N1CCN(c2cccc(C)c2C)CC1`, the AC50 is, setting by setting: under setting [2], 35.5 µM [falling, single point]; under setting [1], 1.41 µM [rising, partial curve]. On to `CCOC(=O)N1CCN(C(=O)CSc2nnc(-c3cccc(OC)c3)o2)CC1`, for which, under setting [2], the concentration at half-maximal activity (AC50) is 20 µM [rising, single point]. Turning to `CC(=O)N(c1ccc(C)cc1)S(=O)(=O)c1ccc(Cl)cc1`, the AC50 under setting [1] is 25.1 µM [rising, single point]. Turning to `CCOc1ccc(NC(=O)CN2CCN(Cc3ccccc3)S2(=O)=O)cc1`, the AC50 under setting [1] is 31.6 µM [rising, partial curve, poor fit].

On to `O=C(Nc1nc(-c2nc3ccccc3s2)cs1)c1ccc(S(=O)(=O)N2CCOCC2)cc1`, for which the AC50 under setting [1] is 1.41 µM [rising, partial curve]. With `CC(C)[C@H](Nc1ccc(S(=O)(=O)N2CCOCC2)cc1[N+](=O)[O-])C(=O)OCC(=O)N(C(C)C)C(C)C`, under setting [1], the AC50 was 31.6 µM [rising, single point]. Turning to `N/C(=N\OC(=O)CC(c1ccccc1)c1ccccc1)c1cccnc1`, the AC50 under setting [2] was 0.02 µM [rising, full curve, poor fit]. `CN(CC(=O)Nc1cccc(Cl)c1)S(=O)(=O)c1ccc2[nH]c3c(c2c1)CCCC3`: the AC50 under setting [1] is 35.5 µM [rising, single point].

As for `COc1cccc(-c2nn3c(-c4ccccn4)nnc3s2)c1`, under setting [1], the AC50 is 22.4 µM [rising, single point]. `COc1ccc(CNC(=O)Cn2c(=O)oc3cc(S(=O)(=O)N4CCCCCC4)ccc32)cc1`: the AC50 under setting [1] was 0.00447 µM [falling, full curve, poor fit]. Take `Cc1cc(C)c2c(c1)-c1cc(C)nn1C(c1ccc3c(c1)OCO3)N2` (configuration not stated): the AC50 under setting [1] was 14.1 µM [rising, partial curve, poor fit]. Take `Cc1cn([C@H]2C=C[C@@H](CO)O2)c(=O)[nH]c1=O`: the AC50 under setting [1] is 35.5 µM [rising, partial curve, poor fit]. Take `CC(C)N(C(=O)CSc1nnnn1C1CCCC1)C(C)C`: under setting [1], the AC50 is 5.62 µM [rising, single point]. With `CCCNC(=O)Cc1ncn[nH]1`, under setting [1], the AC50 was 3.16 µM [falling, partial curve, poor fit]. As for `CC(=O)c1cccc(NC(=O)CN(c2ccc(C)cc2)S(=O)(=O)c2cccc3nonc23)c1`, the AC50 is 35.5 µM [rising, single point] under setting [2] and 35.5 µM [rising, single point] under setting [1]. Consider `O=C(c1cccc2ccccc12)N1CCN(c2ccc([N+](=O)[O-])c(NCc3ccco3)c2)CC1`, for which the AC50 under setting [1] was 1 µM [rising, full curve, poor fit].

Turning to `O=C(Cc1ccc(Cl)cc1)Nc1ccccc1Sc1ccccc1`, the AC50 reads like this: under setting [2], 25.1 µM [rising, single point]; under setting [1], 31.6 µM [rising, single point]. Turning to `Cc1ccc2c(C)c(C(=O)Nc3ccc(S(N)(=O)=O)cc3)oc2c1C`, the AC50 under setting [2] was 6.31 µM [falling, partial curve, poor fit]. For the compound `CCc1cccc(N(C)C(N)=Nc2cccc3ccccc23)c1`, the AC50 was 12.6 µM [falling, partial curve, poor fit] under setting [2] and 0.00562 µM [falling, full curve, poor fit] under setting [1]. With `CCCCn1ccnc1C(=O)c1cccc(S(=O)(=O)N2CC(C)CC(C)C2)c1` (configuration not stated), the AC50 by setting is: under setting [2], 1.26 µM [rising, partial curve, poor fit]; under setting [1], 35.5 µM [rising, single point]. In the case of `CCOc1ccccc1C(=O)N1CCN(c2cccc(Cl)c2)CC1`, the AC50 under setting [1] is 0.891 µM [rising, full curve].

For `CS(=O)(=O)N1CCN(C(=O)NC23CC4CC(CC(C4)C2)C3)CC1`, under setting [1], the concentration at half-maximal activity (AC50) is 20 µM [rising, partial curve, poor fit].
